Columns and labels:
[1] = Uncaging of compound 1 with radiation, with or without mouse EL4 cells; details: 20 μM in PBS, 5% FBS, 0-40Gy
Procedure: A 20 μM solution of compound 1 in phosphate-buffered saline (PBS), 5% fetal bovine serum (FBS) was exposed to increasing radiation doses (0-40Gy) in the absence (black bars) or in the presence (gray bars) of 300,000 mouse EL4 cells in solution (FIG. 11B). The production of fluorescence was detected with a 96-well plate reader (Excitation: 485/20, Emission: 528/20). The increase in fluorescence is detected as [(fluorescence)sample-(fluorescence)control]/(fluorescence)control. The control sample is defined as a 20 μM compound 1 in PBS, 5% FBS without exposure to radiation. Each condition was tested in triplicates.
To simulate the catalyzing effect provided by tumor cells in the generation of ROS/RNS when exposed to radiation, the compound 1 was studied in the presence or absence of auxiliary cells.

[2] = Uncaging of compound 3 with hydrogen peroxide (fluorescence-detected HPLC); details: 20 μM in 50 mM HEPES pH 7; between 1000 and 50 μM H2O2; 15 minutes reaction
Procedure: To minimalize the possibility of side reactions of the maleimide moiety in the presence of H2O2, compound 1 was allowed to react with cysteine to obtain Cys-adducts that may be more relevant to the antibody adducts of interests (See, e.g., Scheme 2). Cys-adducts were prepared for both compounds 1 and 2 (hereafter compound 3 and compound 4, respectively).
A 20 μM solution of compound 3 in 50 mM HEPES pH 7 buffer was titrated with H2O2. Production of compound 4 was monitored by fluorescence-detected HPLC after 15 minutes reaction.

| SMILES | conversion to compound 2 by ROS/RNS generated by radiation [1] | amount of compound 2 generated versus radiation dose and presence of cells ([1]; with or without 300,000 mouse EL4 cells) | production of compound 4 on H2O2 titration [2] |
| --- | --- | --- | --- |
| CC1(C)[C@@H]2CC3OB(c4ccc5c(c4)Oc4cc(B6OC7C[C@@H]8C[C@@H](C8(C)C)[C@]7(C)O6)ccc4C54OC(=O)c5cc(NC(=O)CCOCCOCCNC(=O)CCN6C(=O)C=CC6=O)ccc54)O[C@@]3(C)[C@H]1C2 (stereo partly drawn) [Compound 1, 3-(2,5-dioxo-2,5-dihydro-1H-pyrrol-1-yl)-N-(2-(2-(3-oxo-3-((3-oxo-3′,6′-bis((3aS,4S,6S)-3a,5,5-trimethylhexahydro-4,6-methanobenzo[d][1,3,2]dioxaborol-2-yl)-3H-spiro[isobenzofuran-1,9′-xanthen]-5-yl)amino)propoxy)ethoxy)ethyl)propanamide] | rapidly converted | proportional to the dose used and it was enhanced in the presence of cells in solution | – |
| CC1(C)[C@@H]2C[C@H]1C1OB(c3ccc4c(c3)Oc3cc(B5OC6C[C@@H]7C[C@@H](C7(C)C)[C@]6(C)O5)ccc3C43OC(=O)c4cc(NC(=O)CCOCCOCCNC(=O)CCN5C(=O)CC(SC[C@H](N)C(=O)O)C5=O)ccc43)O[C@@]1(C)C2 (stereo partly drawn) [Compound 3, S-(2,5-dioxo-1-(3-oxo-3-((2-(2-(3-oxo-3-((3-oxo-3′-((3aS,4S,6S)-3a,5,5-trimethylhexahydro-4,6-methanobenzo[d][1,3,2]dioxaborol-2-yl)-6′-((4R,6R,7aS)-5,5,7a-trimethylhexahydro-4,6-methanobenzo[d][1,3,2]dioxaborol-2-yl)-3H-spiro[isobenzofuran-1,9′-xanthen]-5-yl)amino)propoxy)ethoxy)ethyl)amino)propyl)pyrrolidin-3-yl)cysteine] | – | – | linear response |
